Library screen at single concentrations

The chains behind the UniProt entries cited, without tags or fusion partners. Residues count along the entry.
UniProt A4I591, 1-473: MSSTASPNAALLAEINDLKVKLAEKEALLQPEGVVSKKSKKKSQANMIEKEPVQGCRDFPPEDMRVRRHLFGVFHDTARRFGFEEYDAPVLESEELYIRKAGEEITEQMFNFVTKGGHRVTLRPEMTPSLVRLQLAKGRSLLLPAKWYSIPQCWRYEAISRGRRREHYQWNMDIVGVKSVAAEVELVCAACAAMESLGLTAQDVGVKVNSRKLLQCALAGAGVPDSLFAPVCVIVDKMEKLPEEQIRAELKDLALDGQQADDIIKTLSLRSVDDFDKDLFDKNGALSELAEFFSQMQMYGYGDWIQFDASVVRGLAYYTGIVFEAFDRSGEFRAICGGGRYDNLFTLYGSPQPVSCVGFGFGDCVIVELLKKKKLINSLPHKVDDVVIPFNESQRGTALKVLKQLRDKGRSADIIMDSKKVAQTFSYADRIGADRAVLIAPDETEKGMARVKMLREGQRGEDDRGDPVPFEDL
UniProt P9WFT3, whole entry: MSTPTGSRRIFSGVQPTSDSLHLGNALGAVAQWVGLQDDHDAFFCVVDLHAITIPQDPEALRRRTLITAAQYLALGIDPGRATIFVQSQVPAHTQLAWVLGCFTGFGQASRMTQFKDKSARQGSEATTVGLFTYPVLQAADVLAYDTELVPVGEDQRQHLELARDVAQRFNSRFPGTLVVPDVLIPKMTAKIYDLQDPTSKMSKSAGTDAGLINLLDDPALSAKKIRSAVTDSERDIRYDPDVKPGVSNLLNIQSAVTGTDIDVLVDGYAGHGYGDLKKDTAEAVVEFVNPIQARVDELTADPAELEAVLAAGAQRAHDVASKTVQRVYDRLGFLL
UniProt P9WNZ1, whole entry: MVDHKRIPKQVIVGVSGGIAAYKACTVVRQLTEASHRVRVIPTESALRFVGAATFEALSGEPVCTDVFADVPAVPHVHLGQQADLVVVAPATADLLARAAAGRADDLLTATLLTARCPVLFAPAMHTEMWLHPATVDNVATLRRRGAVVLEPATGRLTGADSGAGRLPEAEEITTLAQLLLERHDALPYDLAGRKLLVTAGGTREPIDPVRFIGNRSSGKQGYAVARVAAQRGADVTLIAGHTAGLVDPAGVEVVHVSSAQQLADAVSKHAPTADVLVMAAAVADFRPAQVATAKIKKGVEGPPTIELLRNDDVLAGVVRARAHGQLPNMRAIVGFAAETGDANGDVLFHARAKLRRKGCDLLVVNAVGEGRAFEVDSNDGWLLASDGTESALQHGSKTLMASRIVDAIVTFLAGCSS

Values are the deposited “Percent Effect”, in %. The controls that fix the scale are not given in the record; negative values are as filed. Compounds were drawn at random from those tested, without regard to their results.

A: 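Enzyme assay of histidyl-tRNA synthetase; the read-out is not stated. Target: Histidine-tRNA ligase, Leishmania infantum (UniProt A4I591). Tested at 30 µM. Higher reads as stronger inhibition (inferred: compounds with an IC50 in retests scored well above the rest). The assay is labelled LdHisRS but filed under L. infantum. Of about 69,000 compounds tested this way, about 410 (0.6%) reached 50% or more in at least one test.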
B: 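Tryptophan-tRNA ligase, Mycobacterium tuberculosis (UniProt P9WFT3). Enzyme assay of tryptophanyl-tRNA synthetase; the read-out is not stated. Compounds at 10 µM. Higher most likely means stronger inhibition; the record gives no direction and few retests gave an IC50. Size under these conditions: about 65,000 compounds, about 64 of them at 50% or above in at least one test.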
C: 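Assay of Toxoplasma gondii numbers, read through their beta-galactosidase reporter with a colour substrate. Concentration: 10 µM. Higher reads as fewer parasites (inferred from which compounds were picked for retests). About 67,000 compounds were tested under these conditions; 0.38% (about 260) showed 50% or more at least once.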
D: 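Coenzyme A biosynthesis protein CoaBC, Mycobacterium tuberculosis (UniProt P9WNZ1). Enzyme assay of CoaBC with a phosphate dye (Biomol Green) read at 650 nm. Tested at 30 µM. Direction is inferred from only a few compounds that gave an IC50; most scored high, so higher reads as stronger inhibition. Most strong results did not repeat in a second test. Size under these conditions: about 67,000 compounds, about 40 of them at 50% or above in at least one test.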

For O=C(c1cc(C2CC2)nc2onc(-c3ccccc3)c12)N1CCOCC1 the result was A: 17.78%; B: 2.542%; C: -27.83%; D: 0.7299%. For O=C(CC1CC1)N1Cc2nccn2CC(COc2cccnc2)C1 (centres unmarked) the result was A: 6.944%; B: -6.472%; C: 4.165%; D: 4.316%. For CCN(Cc1ccncc1)C1CCCN(Cc2ccc(F)cc2OC)C1 (centres unmarked) the result was A: 14.53%; B: -3.259%; C: 5.775%; D: -23.11%. For CC(O)CN1CCC(CNCc2ccc(C(N)=O)cc2)CC1 (centres unmarked) the result was A: 4.386%; B: -1.554%; C: 9.957%; D: 1.281%. CCn1c(C2CCCN(Cc3nccn3CCOC)C2)nn(C)c1=O (centres unmarked) gave A: 22.64%; B: -1.509%; C: -0.3721%; D: 3.965%. For Cc1nc(COC[C@@H]2CC[C@H]3[C@H](CCN3c3ccccn3)O2)cs1 the result was A: 19.75%; B: 6.427%; D: -0.128%.

With CC(C)c1noc(CCCC(=O)NC2CCS(=O)(=O)C2)n1 (centres unmarked) the screen gave A: 25.68%; B: -1.267%; C: -3.431%; D: 2.216%. CC(NC(=O)NCCc1ccc(Cl)s1)c1ccccn1 (centres unmarked) gave A: 8.547%; B: 5.622%; C: -1.235%; D: -4.826%. CC(=O)N1CCC(C(=O)NCCN2CCCC(C)C2)CC1 (centres unmarked) gave A: 28.77%; B: 1.499%; C: -4.804%; D: 3.205%. With CN(C)S(=O)(=O)N1CCC(c2cccc(Cc3ccccc3Cl)n2)CC1 the screen gave A: 4.348%; C: -6.291%; D: -1.699%. With O=C(O)C1(n2ccc(-c3ccco3)n2)CCN(Cc2cccnc2)CC1 the screen gave A: 9.574%; B: 3.357%; C: -5%; D: 10.18%. For CN(Cc1noc2c1CCCC2)C(=O)CN1C(=O)COc2ccccc21 the result was A: 10.26%; B: -2.236%; C: -13.1%; D: -9.2%.

CC(C)S(=O)(=O)C(C)C(=O)NCc1ccccc1COc1ccccc1 (centres unmarked) gave A: 13.83%; B: 0%; C: 20.15%; D: 2.02%. O=C(O)C(F)(F)F.O=C(O)C(F)(F)F.O=C(c1ccncc1)N1CCC2(CC1)CCN(Cc1ccccn1)C2=O gave C: 5.118%. For Cn1cc(CN2CCCN(C(=O)c3cc(Cl)cn3C)CC2)cn1 the result was A: 15.2%; B: 1.101%; C: 0.5646%; D: -0.7979%. For CN(Cc1ccsc1)Cc1nc(-c2ccncc2)no1 the result was A: 20.83%; B: 2.397%; C: 2.393%; D: 2.163%. O=C(NC1CC1)C1CNCCN1C(=O)CCc1ccc2c(c1)OCO2 (centres unmarked) gave A: 24.66%; B: -2.23%; C: 4.273%; D: 11.82%. With [H][C@@]12C[C@@H](C(=O)NC(C)C)C[C@@]1([H])N(Cc1ccncc1)CCO2 the screen gave C: 4.557%.

Result for O=C(CN(Cc1cccs1)c1ccc(F)cc1)NC1CCOCC1 was A: 8%; B: -1.064%; C: 4.911%; D: -15.7%.

Measurements from “University of Dundee, Small-Polar-MMV Screening Library” (2021), ChEMBL document CHEMBL3988442.